# Data taken from paper PMC4605297.
# How the values were obtained:
# [1] = biological target: SsOGT D27K (Sulfolobus solfataricus) (UniProt Q97VW7); assay: EMSA; conditions: slightly reduced vs wild type and D27A; EMSA: 0-25 uM protein, 0.2 uM probe, 37 C 10 min, 10 ul, buffer as ref. 17, 8% native PAGE in 1X TBE pH 8.3; recombinant protein; residues 1-151; protein details: N-terminal His (pQE31); label: TAMRA, 5' of A+
# [2] = biological target: SsOGT D27A (Sulfolobus solfataricus) (UniProt Q97VW7); assay: EMSA; conditions: similar to wild type; EMSA: 0-25 uM protein, 0.2 uM probe, 37 C 10 min, 10 ul, buffer as ref. 17, 8% native PAGE in 1X TBE pH 8.3; recombinant protein; residues 1-151; protein details: N-terminal His (pQE31); label: TAMRA, 5' of A+
# [3] = biological target: SsOGT C119F (Sulfolobus solfataricus) (UniProt Q97VW7); assay: EMSA; conditions: slightly reduced affinity vs wild type; EMSA: 0-25 uM protein, 0.2 uM probe, 37 C 10 min, 10 ul, buffer as ref. 17, 8% native PAGE in 1X TBE pH 8.3; recombinant protein; residues 1-151; protein details: N-terminal His (pQE31); label: TAMRA, 5' of A+
# [4] = biological target: SsOGT C119L (Sulfolobus solfataricus) (UniProt Q97VW7); assay: EMSA; conditions: slightly reduced affinity vs wild type; EMSA: 0-25 uM protein, 0.2 uM probe, 37 C 10 min, 10 ul, buffer as ref. 17, 8% native PAGE in 1X TBE pH 8.3; recombinant protein; residues 1-151; protein details: N-terminal His (pQE31); label: TAMRA, 5' of A+
# [5] = biological target: SsOGT C119A (Sulfolobus solfataricus) (UniProt Q97VW7); assay: EMSA; conditions: comparable for all lesion positions, EMSA: 0-25 uM protein, 0.2 uM probe, 37 C 10 min, 10 ul, buffer as ref. 17, 8% native PAGE in 1X TBE pH 8.3, recombinant protein, residues 1-151, protein details: N-terminal His (pQE31)
# [6] = biological target: SsOGT D27A (Sulfolobus solfataricus) (UniProt Q97VW7); assay: competition with a labelled probe; conditions: repair competition with BG-VG, 50 C; O6-methylguanine at position 26 of strand 1; EMSA: 0-25 uM protein, 0.2 uM probe, 37 C 10 min, 10 ul, buffer as ref. 17, 8% native PAGE in 1X TBE pH 8.3; recombinant protein; residues 1-151; protein details: N-terminal His (pQE31); letters put together from the description
sequence,measurement,setting,value
GCAACAACGTTGCGCAAACTATTAACTGGCGAACTACTTA (double strand) [ds A+/D- (A+/A- in Fig. 3 legend)],binding result,[1],binds more weakly
same,binding result,[2],binds
same,binding result,[3],binds more weakly
same,binding result,[4],binds more weakly
GGCAGTAGGCCTAGCATGACAATCTGCATTGGTGATCACGG / CGCTCATCCACAATGCAGATTGTCATGCTAGGCCTACTGCC [ds-Fwdm2],binding result,[5]; O6-methylguanine at position 2 of strand 1,binds
GGCAGTAGGCCTAGCATGACAATCTGCATTGGTGATCACGG / CGCTCATCCACAATGCAGATTGTCATGCTAGGCCTACTGCC [ds-Fwdm26],IC50,[6],2260 nM
same,binding result,"[5]; O6-methylguanine at position 26 of strand 1, letters put together from the description",binds
GGCAGTAGGCCTAGCATGACAATCTGCATTGGTGATCACGG / CGCTCATCCACAATGCAGATTGTCATGCTAGGCCTACTGCC [ds-Fwdm40],binding result,[5]; O6-methylguanine at position 40 of strand 1,binds

# For some assays here: A weaker result is weaker than the reference pair of the same experiment. For some assays here: For at least one entry, the source does not settle the construct or the ends of the probe. For some assays here: At least one verdict rests on a figure or table, not on a statement of the authors.
